Literature values as cited in patent US20240009323A1, “METHODS OF TREATING COLON CANCER USING NANOPARTICLE MTOR INHIBITOR COMBINATION THERAPY” (Abraxis BioScience, LLC, priority 2017, published 2024).
At least one structure is not confirmed: it was looked up by name or label, or the drawing left a doubt.

Target: mTORC1 (Homo sapiens, UniProt P42345)
Conditions: HUVEC cells

COC(=O)Nc1ccc(-c2nc(N3CCOCC3)c3cnn(C4CCN(C(=O)OC)CC4)c3n2)cc1 [WYE-354]
concentration inhibiting mTORC1: 10 nM-1 μM
